The list shows a part of the results.
Compound: Cc1cc(ccc1-c1ccccc1)C(=O)N1CCCN(CC1)C(=O)CCl [compound 10]
Experiment: probe-labelled cysteine peptide fold change vs DMSO (competition) (log2 fold change); higher = less target engagement (more negative = stronger competition)
Settings: THP-1, incubation time: 4 h
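Also: competitive profiling in live THP-1 cells: cysteine peptides tagged with an iodoacetamide desthiobiotin (IA-DTB) probe, intensity after compound treatment relative to DMSO-treated cells.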

Sequences of proteins named here, by UniProt entry; tags and fusion partners are left off. A change or cut given only in a name is not applied to a line headed by its entry.
UniProt Q9NUD5: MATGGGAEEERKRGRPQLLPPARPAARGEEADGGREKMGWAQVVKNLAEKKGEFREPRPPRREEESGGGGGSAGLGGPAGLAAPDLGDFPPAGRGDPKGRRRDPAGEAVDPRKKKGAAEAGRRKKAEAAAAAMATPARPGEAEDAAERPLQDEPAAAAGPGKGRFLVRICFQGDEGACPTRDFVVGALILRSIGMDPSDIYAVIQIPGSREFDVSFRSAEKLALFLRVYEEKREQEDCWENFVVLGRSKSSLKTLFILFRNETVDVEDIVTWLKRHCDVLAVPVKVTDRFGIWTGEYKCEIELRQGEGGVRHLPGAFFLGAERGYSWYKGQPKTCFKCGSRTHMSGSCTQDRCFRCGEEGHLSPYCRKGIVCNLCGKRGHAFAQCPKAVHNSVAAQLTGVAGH
UniProt Q86WB0: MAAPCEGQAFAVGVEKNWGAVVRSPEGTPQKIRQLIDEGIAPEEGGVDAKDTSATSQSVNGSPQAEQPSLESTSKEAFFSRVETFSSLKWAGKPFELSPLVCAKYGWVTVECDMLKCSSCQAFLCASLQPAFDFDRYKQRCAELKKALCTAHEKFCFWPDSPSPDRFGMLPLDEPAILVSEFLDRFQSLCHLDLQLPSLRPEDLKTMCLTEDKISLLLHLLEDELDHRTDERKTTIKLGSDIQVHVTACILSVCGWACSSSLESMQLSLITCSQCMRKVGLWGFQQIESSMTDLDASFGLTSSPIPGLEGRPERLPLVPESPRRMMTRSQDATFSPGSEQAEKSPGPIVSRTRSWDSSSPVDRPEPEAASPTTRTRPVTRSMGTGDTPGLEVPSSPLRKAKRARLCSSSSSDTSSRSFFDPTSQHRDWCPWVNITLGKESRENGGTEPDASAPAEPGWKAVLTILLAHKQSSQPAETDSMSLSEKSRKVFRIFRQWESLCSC
UniProt Q7Z2W4: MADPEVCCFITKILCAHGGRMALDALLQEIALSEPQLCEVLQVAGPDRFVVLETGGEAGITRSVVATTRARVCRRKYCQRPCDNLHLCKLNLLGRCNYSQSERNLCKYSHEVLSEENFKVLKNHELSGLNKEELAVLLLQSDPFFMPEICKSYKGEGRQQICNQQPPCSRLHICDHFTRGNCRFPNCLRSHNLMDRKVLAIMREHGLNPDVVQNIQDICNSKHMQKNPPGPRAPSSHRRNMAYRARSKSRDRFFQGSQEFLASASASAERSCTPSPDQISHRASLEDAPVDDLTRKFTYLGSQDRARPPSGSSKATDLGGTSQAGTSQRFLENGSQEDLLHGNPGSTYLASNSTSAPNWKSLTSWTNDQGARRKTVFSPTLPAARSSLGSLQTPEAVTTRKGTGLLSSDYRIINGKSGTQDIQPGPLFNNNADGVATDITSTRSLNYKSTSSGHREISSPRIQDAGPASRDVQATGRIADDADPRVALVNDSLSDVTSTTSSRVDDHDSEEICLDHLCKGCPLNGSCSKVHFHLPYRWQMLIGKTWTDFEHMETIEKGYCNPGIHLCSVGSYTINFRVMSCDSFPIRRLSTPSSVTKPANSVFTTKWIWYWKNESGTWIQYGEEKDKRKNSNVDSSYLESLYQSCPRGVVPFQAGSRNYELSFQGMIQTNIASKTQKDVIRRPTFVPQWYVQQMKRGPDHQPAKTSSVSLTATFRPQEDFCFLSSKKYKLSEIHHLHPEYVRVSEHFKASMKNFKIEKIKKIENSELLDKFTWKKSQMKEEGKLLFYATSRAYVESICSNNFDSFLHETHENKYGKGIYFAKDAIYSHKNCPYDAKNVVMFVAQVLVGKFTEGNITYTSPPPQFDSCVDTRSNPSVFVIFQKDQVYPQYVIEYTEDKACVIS
UniProt O43542: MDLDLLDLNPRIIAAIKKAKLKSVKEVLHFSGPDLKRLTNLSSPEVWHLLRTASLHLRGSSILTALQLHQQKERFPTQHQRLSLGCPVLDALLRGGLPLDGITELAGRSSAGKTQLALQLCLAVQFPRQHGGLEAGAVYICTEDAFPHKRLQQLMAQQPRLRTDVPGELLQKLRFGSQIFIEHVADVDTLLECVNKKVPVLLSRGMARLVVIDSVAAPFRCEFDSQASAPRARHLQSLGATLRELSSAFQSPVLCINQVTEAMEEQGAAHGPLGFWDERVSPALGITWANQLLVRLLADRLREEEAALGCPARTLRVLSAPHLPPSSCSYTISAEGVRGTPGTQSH
UniProt Q5T200: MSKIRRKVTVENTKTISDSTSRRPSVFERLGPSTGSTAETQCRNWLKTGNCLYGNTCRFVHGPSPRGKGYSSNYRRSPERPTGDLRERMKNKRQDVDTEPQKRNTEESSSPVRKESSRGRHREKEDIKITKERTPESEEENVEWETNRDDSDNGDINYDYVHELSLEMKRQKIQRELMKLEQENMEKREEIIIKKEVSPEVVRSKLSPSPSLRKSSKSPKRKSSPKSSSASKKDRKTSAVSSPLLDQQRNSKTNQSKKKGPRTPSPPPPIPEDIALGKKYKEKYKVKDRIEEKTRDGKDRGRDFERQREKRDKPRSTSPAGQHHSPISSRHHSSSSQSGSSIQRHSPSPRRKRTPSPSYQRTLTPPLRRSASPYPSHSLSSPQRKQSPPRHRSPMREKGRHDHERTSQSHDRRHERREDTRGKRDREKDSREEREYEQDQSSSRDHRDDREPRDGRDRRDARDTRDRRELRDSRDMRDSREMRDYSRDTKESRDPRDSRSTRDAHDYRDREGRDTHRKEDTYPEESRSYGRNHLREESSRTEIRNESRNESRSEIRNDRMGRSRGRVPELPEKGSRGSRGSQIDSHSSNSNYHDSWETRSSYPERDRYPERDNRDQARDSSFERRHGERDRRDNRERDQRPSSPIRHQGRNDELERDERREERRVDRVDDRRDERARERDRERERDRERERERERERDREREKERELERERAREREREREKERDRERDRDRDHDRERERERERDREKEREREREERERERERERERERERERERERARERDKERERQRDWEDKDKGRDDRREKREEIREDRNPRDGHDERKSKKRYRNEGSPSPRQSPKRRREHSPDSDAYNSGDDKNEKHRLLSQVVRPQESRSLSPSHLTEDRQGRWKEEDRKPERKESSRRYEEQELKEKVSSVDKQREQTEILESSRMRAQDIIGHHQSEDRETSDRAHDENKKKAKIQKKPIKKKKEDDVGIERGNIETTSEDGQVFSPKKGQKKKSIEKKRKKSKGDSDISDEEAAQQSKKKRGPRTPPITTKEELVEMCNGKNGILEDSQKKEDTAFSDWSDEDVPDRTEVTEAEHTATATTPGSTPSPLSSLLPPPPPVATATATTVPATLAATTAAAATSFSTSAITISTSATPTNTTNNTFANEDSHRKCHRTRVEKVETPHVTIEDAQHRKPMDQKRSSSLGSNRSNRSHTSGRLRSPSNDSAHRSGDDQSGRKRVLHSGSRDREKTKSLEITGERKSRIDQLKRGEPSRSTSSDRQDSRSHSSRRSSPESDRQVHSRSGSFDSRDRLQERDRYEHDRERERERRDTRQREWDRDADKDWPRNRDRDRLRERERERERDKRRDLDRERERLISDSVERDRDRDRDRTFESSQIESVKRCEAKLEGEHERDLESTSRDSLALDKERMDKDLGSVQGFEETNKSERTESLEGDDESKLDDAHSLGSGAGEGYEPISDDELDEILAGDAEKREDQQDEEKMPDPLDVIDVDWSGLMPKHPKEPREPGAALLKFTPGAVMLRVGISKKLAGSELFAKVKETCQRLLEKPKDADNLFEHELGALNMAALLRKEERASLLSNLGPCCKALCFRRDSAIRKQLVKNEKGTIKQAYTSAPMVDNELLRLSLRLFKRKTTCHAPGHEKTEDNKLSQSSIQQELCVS
UniProt P12956: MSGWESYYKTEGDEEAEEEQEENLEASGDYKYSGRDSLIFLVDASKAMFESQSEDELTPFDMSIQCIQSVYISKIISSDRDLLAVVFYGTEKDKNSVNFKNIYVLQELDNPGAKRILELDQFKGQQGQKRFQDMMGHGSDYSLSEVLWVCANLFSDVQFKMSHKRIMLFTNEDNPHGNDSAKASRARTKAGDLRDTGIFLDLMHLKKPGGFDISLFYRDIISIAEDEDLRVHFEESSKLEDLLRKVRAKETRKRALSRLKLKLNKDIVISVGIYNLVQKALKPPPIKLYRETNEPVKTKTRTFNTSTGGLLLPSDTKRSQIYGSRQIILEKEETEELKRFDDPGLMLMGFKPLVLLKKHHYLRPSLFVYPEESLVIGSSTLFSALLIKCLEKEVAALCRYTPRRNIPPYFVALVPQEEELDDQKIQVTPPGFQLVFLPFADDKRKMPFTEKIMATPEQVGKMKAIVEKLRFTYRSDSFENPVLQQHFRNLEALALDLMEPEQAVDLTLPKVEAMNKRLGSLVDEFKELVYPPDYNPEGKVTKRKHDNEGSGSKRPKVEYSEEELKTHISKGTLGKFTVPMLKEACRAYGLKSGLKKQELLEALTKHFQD
UniProt Q86U90: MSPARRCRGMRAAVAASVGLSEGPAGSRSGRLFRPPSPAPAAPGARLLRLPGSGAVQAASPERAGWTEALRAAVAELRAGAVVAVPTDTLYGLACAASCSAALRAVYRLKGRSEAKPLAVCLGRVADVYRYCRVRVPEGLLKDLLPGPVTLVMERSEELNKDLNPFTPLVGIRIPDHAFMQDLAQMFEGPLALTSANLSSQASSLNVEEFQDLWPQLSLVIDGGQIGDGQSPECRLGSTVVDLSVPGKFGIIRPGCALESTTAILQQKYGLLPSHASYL
UniProt O15498: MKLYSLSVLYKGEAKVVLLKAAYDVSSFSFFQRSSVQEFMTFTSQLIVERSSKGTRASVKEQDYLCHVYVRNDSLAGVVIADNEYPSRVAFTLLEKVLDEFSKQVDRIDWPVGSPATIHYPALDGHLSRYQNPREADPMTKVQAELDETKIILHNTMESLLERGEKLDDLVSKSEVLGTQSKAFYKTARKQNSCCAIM
UniProt Q04917: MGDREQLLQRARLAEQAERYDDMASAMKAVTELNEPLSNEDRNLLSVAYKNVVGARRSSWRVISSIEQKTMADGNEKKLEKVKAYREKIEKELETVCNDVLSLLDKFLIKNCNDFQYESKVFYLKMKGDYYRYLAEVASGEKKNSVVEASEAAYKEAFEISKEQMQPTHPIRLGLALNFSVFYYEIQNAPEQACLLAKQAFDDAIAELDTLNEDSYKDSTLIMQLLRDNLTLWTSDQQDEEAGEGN
UniProt O76080: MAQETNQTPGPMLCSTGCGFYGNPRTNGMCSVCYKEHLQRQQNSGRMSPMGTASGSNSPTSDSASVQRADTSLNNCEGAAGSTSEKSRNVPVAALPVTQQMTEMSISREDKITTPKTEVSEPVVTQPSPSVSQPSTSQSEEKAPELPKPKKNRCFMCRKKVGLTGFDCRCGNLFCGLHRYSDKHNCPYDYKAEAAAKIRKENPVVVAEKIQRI
UniProt Q9HAV4: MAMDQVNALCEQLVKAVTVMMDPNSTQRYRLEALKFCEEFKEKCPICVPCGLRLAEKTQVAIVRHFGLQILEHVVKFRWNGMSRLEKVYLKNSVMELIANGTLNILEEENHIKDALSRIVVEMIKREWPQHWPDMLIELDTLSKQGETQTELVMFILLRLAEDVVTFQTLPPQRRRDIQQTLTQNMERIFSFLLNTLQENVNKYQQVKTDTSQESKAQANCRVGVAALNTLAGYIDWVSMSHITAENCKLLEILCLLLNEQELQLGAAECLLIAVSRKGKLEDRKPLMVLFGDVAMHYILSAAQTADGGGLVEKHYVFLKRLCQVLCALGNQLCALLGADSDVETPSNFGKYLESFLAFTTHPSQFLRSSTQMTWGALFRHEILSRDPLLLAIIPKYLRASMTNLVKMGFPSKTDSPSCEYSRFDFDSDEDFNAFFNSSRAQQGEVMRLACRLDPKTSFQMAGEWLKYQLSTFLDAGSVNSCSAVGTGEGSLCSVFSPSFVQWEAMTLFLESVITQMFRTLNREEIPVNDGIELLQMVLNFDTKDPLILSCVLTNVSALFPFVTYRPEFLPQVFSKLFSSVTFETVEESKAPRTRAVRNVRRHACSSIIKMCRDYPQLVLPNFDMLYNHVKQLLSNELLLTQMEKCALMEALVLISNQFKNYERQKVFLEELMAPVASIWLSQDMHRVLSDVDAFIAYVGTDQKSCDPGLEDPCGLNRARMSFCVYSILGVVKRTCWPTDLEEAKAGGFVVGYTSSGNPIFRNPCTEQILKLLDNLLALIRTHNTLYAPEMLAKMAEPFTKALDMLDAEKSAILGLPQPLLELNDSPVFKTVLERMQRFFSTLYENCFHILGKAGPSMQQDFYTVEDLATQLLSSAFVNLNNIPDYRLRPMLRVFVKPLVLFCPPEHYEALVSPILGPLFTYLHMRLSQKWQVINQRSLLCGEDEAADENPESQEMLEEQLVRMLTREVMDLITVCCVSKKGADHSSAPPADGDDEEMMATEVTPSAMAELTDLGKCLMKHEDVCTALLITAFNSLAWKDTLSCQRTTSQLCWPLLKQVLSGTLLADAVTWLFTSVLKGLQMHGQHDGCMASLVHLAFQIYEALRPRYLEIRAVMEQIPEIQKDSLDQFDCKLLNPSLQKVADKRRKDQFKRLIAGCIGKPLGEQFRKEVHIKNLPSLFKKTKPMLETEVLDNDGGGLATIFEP

| Target | probe-labelled cysteine peptide fold change (10 µM) | probe-labelled cysteine peptide fold change (50 µM) |
| --- | --- | --- |
| ZCCHC3_Q9NUD5_178_ICFQGDEGACPTR (UniProt Q9NUD5) | -0.101 | -0.0525 |
| ZC3HC1_Q86WB0_406_LCSSSSSDTSSR (UniProt Q86WB0) | -0.246 | -0.86 |
| ZC3HAV1_Q7Z2W4_798_AYVESICSNNFDSFLHETHENK (UniProt Q7Z2W4) | -0.00309 | 0.073 |
| XRCC3_O43542_86_LSLGCPVLDALLR (UniProt O43542) | -0.0719 | -0.363 |
| ZFAND1_Q8TCF1_79_ELVAVICPYCEK (UniProt Q8TCF1) | 0.0327 | 0.281 |
| ZC3H13_Q5T200_1643_TTCHAPGHEK (UniProt Q5T200) | -0.253 | -0.227 |
| ZBTB34_Q8NCN2_32_LCDIIVHIQGQPFR (UniProt Q8NCN2) | 0.104 | 0.161 |
| XRCC6_P12956_398_EVAALCR (UniProt P12956) | -0.0233 | 0.277 |
| YARS2_Q9Y2Z4_413_EAPFSEFFLDPGTSVLDTCR (UniProt Q9Y2Z4) | -0.158 | 0.12 |
| YRDC_Q86U90_256_FGIIRPGCALESTTAILQQK (UniProt Q86U90) | -0.354 | 0.0352 |
| ZBTB2_Q8N680_296_VPLTLCSNAADLGK (UniProt Q8N680) | 0.00267 | -0.193 |
| ZCCHC3_Q9NUD5_299_CEIELR (UniProt Q9NUD5) | 0.203 | 0.323 |
| ZC3H7A_Q8IWR0_149_CSLAVPQDEHVIK (UniProt Q8IWR0) | 0.0131 | -0.0376 |
| ZC3H13_Q5T200_1592_ASLLSNLGPCCK (UniProt Q5T200) | -0.166 | -0.471 |
| ZC3H11A_O75152_588_SVLTPLRGDVASCNTQVAEKPVLTAVPGITR (UniProt O75152) | 0.00554 | -0.151 |
| YTHDC2_Q9H6S0_788_LLAPVNCPIADFLMK (UniProt Q9H6S0) | -0.0326 | -0.072 |
| YKT6_O15498_66_EQDYLCHVYVR (UniProt O15498) | 0.139 | 0.289 |

| Target | probe-labelled cysteine peptide fold change (10 µM) | probe-labelled cysteine peptide fold change (50 µM) |
| --- | --- | --- |
| XPO4_Q9C0E2_54_SPFAVCK (UniProt Q9C0E2) | 0.0547 | 0.164 |
| ZC3H14_Q6PJT7_607_YWPACK (UniProt Q6PJT7) | 0.102 | -0.0327 |
| ZDHHC21_Q8IVQ6_112_CGHCVR (UniProt Q8IVQ6) | 0.0718 | -0.0337 |
| YY1_P25490_385_IHTGDRPYVCPFDGCNKK (UniProt P25490) | -0.00426 | -0.238 |
| XPOT_O43592_650_QASLADCLNHAVGFASR (UniProt O43592) | -0.105 | 0.0474 |
| YDJC_A8MPS7_119_EAVAAGDVDLPQVREELEAQLSCFR (UniProt A8MPS7) | 0.183 | 0.573 |
| XRCC3_O43542_193_FGSQIFIEHVADVDTLLECVNK (UniProt O43542) | -0.0318 | -0.00191 |
| XPO7_Q9UIA9_123_LGWFDCQK (UniProt Q9UIA9) | -0.42 | 0.232 |
| ZCCHC3_Q9NUD5_348_THMSGSCTQDR (UniProt Q9NUD5) | 0.151 | -0.12 |
| YWHAZ_P63104_25_YDDMAACMK (UniProt P63104) | -0.0429 | -0.13 |
| YWHAH_Q04917_112_NCNDFQYESK (UniProt Q04917) | 0.0168 | 0.124 |
| XPO1_O14980_528_DLLGLCEQKR (UniProt O14980) | -0.248 | -1.11 |
| ZC3HAV1_Q7Z2W4_15_ILCAHGGR (UniProt Q7Z2W4) | 0.177 | -0.105 |
| ZFAND5_O76080_170+175_CGNLFCGLHR (UniProt O76080) | 0.321 | -0.292 |
| XRN1_Q8IZH2_1104_PLEQQHGVIPDRDAEFCLFDR (UniProt Q8IZH2) | 0.195 | -0.0163 |
| XPO5_Q9HAV4_736_TCWPTDLEEAK (UniProt Q9HAV4) | -0.0481 | 0.117 |
| ZCCHC3_Q9NUD5_372+375_GIVCNLCGK (UniProt Q9NUD5) | -0.0364 | -0.0559 |

Reference: the supplement of paper PMC12067093, “Discovery and optimisation of a covalent ligand for TRIM25 and its application to targeted protein ubiquitination” (Chemical Science, 2025)
